Results are given in words; binding and its absence hold for the method and conditions named. In cells and extracts the contact can be indirect. Some binding calls cover weakened binding; strength is not graded here.
Target: Valosin-containing protein (VCP)/p97 (human (endogenous in HCT116 and CS1AN+iCSB)) (UniProt P55072)
Assay: co-IP; anti-VCP/p97 antibody, protein A Plus G agarose; RIPA lysates of CS1AN+iCSB cells with and without Dox induction of CSB, 2 h after UV at 20 J/m^2; Western blot for RNAPII and CSB

Protein sequences, listed by entry. Tags and fused reporters are not part of them.
UniProt Q03468: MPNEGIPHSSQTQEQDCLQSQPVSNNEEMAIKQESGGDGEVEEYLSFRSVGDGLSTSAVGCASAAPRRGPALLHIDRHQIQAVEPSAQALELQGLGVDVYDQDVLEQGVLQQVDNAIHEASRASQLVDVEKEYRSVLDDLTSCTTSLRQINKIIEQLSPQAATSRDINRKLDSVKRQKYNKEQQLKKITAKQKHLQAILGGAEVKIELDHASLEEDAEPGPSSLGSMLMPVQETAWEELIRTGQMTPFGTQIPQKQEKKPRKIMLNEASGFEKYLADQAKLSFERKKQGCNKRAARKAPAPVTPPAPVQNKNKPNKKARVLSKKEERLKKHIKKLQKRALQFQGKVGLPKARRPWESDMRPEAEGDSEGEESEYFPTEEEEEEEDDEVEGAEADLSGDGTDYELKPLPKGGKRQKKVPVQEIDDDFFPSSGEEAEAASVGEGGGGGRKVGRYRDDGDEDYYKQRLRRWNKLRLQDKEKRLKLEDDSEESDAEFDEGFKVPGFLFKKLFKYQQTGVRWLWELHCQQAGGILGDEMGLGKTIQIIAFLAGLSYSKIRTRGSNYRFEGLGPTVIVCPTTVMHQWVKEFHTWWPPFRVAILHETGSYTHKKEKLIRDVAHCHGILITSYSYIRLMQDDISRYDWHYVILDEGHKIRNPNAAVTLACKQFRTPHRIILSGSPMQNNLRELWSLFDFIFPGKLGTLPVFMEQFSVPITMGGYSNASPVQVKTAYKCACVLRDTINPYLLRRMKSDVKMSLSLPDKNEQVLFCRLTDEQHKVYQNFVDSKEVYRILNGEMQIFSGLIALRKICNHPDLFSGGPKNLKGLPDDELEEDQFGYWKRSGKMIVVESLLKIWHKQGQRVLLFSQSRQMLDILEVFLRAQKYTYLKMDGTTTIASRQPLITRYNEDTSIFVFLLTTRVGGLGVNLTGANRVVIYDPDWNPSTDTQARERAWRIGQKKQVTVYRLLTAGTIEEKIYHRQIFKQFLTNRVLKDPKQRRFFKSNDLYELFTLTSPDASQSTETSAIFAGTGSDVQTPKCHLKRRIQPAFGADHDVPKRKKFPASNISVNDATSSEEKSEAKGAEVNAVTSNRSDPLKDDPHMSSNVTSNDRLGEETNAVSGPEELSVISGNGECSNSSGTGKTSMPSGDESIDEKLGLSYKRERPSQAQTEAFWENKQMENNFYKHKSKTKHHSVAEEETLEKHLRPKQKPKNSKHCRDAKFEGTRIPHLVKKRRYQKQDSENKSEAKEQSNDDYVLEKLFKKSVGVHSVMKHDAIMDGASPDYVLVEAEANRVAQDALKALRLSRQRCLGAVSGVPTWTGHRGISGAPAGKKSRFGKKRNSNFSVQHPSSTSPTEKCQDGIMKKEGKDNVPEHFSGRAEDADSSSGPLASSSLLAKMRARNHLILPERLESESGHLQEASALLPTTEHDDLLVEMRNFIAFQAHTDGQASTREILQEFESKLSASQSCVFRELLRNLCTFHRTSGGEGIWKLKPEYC

Cockayne syndrome B protein (CSB) (from UniProt Q03468 1-1493)
binding: binds
